In the supplement of paper PMC12889115:
The list shows a part of the results. Values are raw readings; no control value is given beside them.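 Primary screen: polymyxin B was added at a level permeabilizing Salmonella outer membranes while sparing inner membranes. DMSO wells, both with and without polymyxin B, established maximum growth. Plate-to-plate variation meant each plate was ranked on its own, and the lowest-OD600 compounds were selected as hits.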

Tested on: Salmonella enterica serovar Typhimurium SL1344
Assay: bacterial growth OD600 after 18 h with compound and polymyxin B; higher = more bacterial growth (less inhibition)
Details: 50 µM, Mueller-Hinton broth

Row | Structure (SMILES) | bacterial growth OD600 (polymyxin B 1 µg/mL) | bacterial growth OD600 (polymyxin B 0.75 µg/mL)
1 | CCN1CCCC(CN(C)c2nc3nonc3nc2NCCOC)C1 (stereo unspecified) | 0.838 | –
2 | Cc1cc(C(=O)NCC2CCCN(Cc3ccc(Sc4nncn4C)o3)C2)no1 (stereo unspecified) | 0.906 | –
3 | Cc1cc(C)n(CCC(=O)NCc2cccnc2Oc2ccccc2F)n1 | 0.927 | –
4 | CN(C(=O)CC(c1cccc(Cl)c1)c1ccccc1O)C1CCOCC1 (stereo unspecified) | 1.15 | –
5 | COc1cc(OC)nc(NCc2cccnc2N2CCOCC2)n1 | 0.815 | –
6 | CCCCn1c(CN2CCCCC2CCOC)cnc1S(=O)(=O)C1CCCCC1 (stereo unspecified) | 0.006 | –
7 | CC(C)=CC(=O)N1CCC2(CC1)CC2C(=O)NCc1cccc(C)n1 (stereo unspecified) | – | 0.95
8 | COc1cccc(OCc2nc(C(=O)N(C)CC(C)C)co2)c1 | 0.889 | –
9 | CC(C)CNCC1(O)CCCN(Cc2cccc(F)c2F)C1=O (stereo unspecified) | – | 0.985
10 | O=C(NCCC(c1ccccc1)c1ccccc1)C1CC12CCN(C(=O)Cc1cccs1)CC2 (stereo unspecified) | – | 0.017
11 | COc1ccc(-c2noc(-c3ccc(OCC4(C)CCCNC4)nc3)n2)cc1 (stereo unspecified) | 0.046 | –
12 | CC(C)c1cc(C(=O)N2CCCC(C(=O)Nc3ccccc3Oc3cccnc3)C2)no1 (stereo unspecified) | 0.365 | –
13 | CC(C)CNc1ccc(C(=O)NCCC2CCCCN2C)cn1 (stereo unspecified) | 0.958 | –
14 | CCC1CN(CC=C(C)C)Cc2cc(OC)ccc2O1 (stereo unspecified) | – | 0.798
15 | CCN(Cc1cnc(SC)nc1)CC1CCCN(CCc2cccc(OC)c2)C1 (stereo unspecified) | 0.861 | –
16 | CC(=O)Nc1ccc(CN2CCCCC2C(=O)Nc2ccc(-n3cccn3)cc2)cc1 (stereo unspecified) | 0.945 | –

Row | Structure (SMILES) | bacterial growth OD600 (polymyxin B 1 µg/mL) | bacterial growth OD600 (polymyxin B 0.75 µg/mL)
17 | C/C=C(\C)CN1CCC(Oc2ccc(C(=O)NCCN(C)C)cc2Cl)CC1 | 1.12 | –
18 | COc1ccccc1C1CN(Cc2coc3ccccc3c2=O)Cc2ccccc2O1 (stereo unspecified) | – | 0.881
19 | Cc1cccc(C)c1Oc1ncccc1CNC(=O)C(C)n1ccnc1 (stereo unspecified) | 1.08 | –
20 | Cc1c(-c2ccccc2F)[nH]c2ccc(CNC(=O)C3CCCN(C(N)=O)C3)cc12 (stereo unspecified) | 0.772 | –
21 | COc1ccc(NC2CCCN(C(=O)c3ccc(CSC)o3)C2)cc1OC (stereo unspecified) | 0.867 | –
22 | COc1ccc(CCN2CCCC(CN(C)Cc3cccc(C(C)=O)c3)C2)cc1 (stereo unspecified) | – | 0.797
23 | CCOC(=O)C1(CCCc2ccccc2)CCN(C(=O)c2cncs2)CC1 | 0.711 | –
24 | CCOC(=O)C1(Cc2ccccc2)CCCN(S(=O)(=O)N(C)C)C1 (stereo unspecified) | 0.934 | –
25 | O=C(NC1CC(=O)N(CCCc2ccccc2)C1)C1CCC1 (stereo unspecified) | 0.911 | –
26 | O=C(CCC1(Cc2ccc(Cl)cc2)CCC(=O)N1)NCCCc1ccccc1 (stereo unspecified) | – | 0.812
27 | C/C=C(\C)CN1CCC2(CC1)c1ccccc1[C@@H](NC(=O)c1cccc(F)c1)[C@@H]2OC | – | 0.801
28 | O=C(NC1CCCN(C2Cc3ccccc3C2)C1)C1(N2CCOCC2)CCCCC1 (stereo unspecified) | – | 0.819
29 | CCO[C@H]1[C@H](NC(=O)c2cccnc2)c2ccccc2C12CCN(C(=O)C1CCCCC1)CC2 | – | 0.829
30 | O=C(NCc1cccs1)C1CC12CCN(Cc1cccc3nccnc13)CC2 (stereo unspecified) | – | 0.788
31 | OC1CCCN(c2ccc(-c3nc(Cc4ccc(Cl)cc4)no3)cn2)C1 (stereo unspecified) | 0.955 | –

In the list so far, these have a Cl atom.
Row | Structure (SMILES) | bacterial growth OD600 (polymyxin B 1 µg/mL) | bacterial growth OD600 (polymyxin B 0.75 µg/mL)
4 | CN(C(=O)CC(c1cccc(Cl)c1)c1ccccc1O)C1CCOCC1 (stereo unspecified) | 1.15 | –
17 | C/C=C(\C)CN1CCC(Oc2ccc(C(=O)NCCN(C)C)cc2Cl)CC1 | 1.12 | –
26 | O=C(CCC1(Cc2ccc(Cl)cc2)CCC(=O)N1)NCCCc1ccccc1 (stereo unspecified) | – | 0.812
31 | OC1CCCN(c2ccc(-c3nc(Cc4ccc(Cl)cc4)no3)cn2)C1 (stereo unspecified) | 0.955 | –
